Assay [1] concerns the target calreticulin (human (endogenous in DLD-1)) (UniProt P27797). In words: non-reducing SDS-PAGE and Western blot; DLD-1 cells treated with ABT/AZD with or without PF-543 and the Casp8 inhibitor z-IETD-fmk; dimeric and monomeric forms of CRT on a Western blot. Background: A western blot detects proteins with antibodies after separation by electrophoresis.
The target is the same in assay [2]. In words: condition: only with the Casp8 inhibitor z-IETD-fmk; non-reducing SDS-PAGE and Western blot; DLD-1 cells treated with ABT/AZD with or without PF-543 and the Casp8 inhibitor z-IETD-fmk; dimeric and monomeric forms of CRT on a Western blot.
The target is the same in assay [3]. In words: condition: only in DLD-1 cells over-expressing GFP-SphK1; non-reducing SDS-PAGE and Western blot; DLD-1 cells over-expressing GFP-SphK1, treated with ABT/AZD (0.25/0.125 µM) and PF-543 (100 nM) in 5% dlFBS for 24 h; dimerization of CRT detected by Western blot.

These are yes or no findings as the source states them, for the method shown. Some results given as binding are weak or reduced against the parent protein; the word gives no strength.

B1: calreticulin (natural protein, human (endogenous in DLD-1), UniProt P27797 18-417, looked up)
chain: EPAVYFKEQFLDGDGWTSRWIESKHKSDFGKFVLSSGKFYGDEEKDKGLQTSQDARFYALSASFEPFSNKGQTLVVQFTVKHEQNIDCGGGYVKLFPNSLDQTDMHGDSEYNIMFGPDICGPGTKKVHVIFNYKGKNVLINKDIRCKDDEFTHLYTLIVRPDNTYEVKIDNSQVESGSLEDDWDFLPPKKIKDPDASKPEDWDERAKIDDPTDSKPEDWDKPEHIPDPDAKKPEDWDEEMDGEWEPPVIQNPEYKGEWKPRQIDNPDYKGTWIHPEIDNPEYSPDPSIYAYDNFGVLGLDLWQVKSGTIFDNFLITNDEAYAEEFGNETWGVTKAAEKQMKDKQDEEQRLKEEEEDKKRKEEEEAEDKEDDEDKDEDEEDEEDKEEDEEEDVPGQAKDEL
notes: calreticulin (CRT), the normally ER resident chaperone, endogenous in human colorectal DLD-1 cells; Seen as a disulfide-linked dimer on Western blots run under non-reducing conditions; also called CRT; ectoCRT; source: endogenous, DLD-1 whole cell lysate (RIPA)
With B1, the values for the binding entry in assay [1], in assay [2] and in assay [3] were “binds”, “no binding” and “no binding”, respectively.

These data come from article PMC9657779, “Regulatory Role of Sphingosine-1-Phosphate and C16:0 Ceramide, in Immunogenic Cell Death of Colon Cancer Cells Induced by Bak/Bax-Activation” (Cancers, 2022).
